These are yes or no findings as the source states them, for the method shown. Some results given as binding are weak or reduced against the parent protein; the word gives no strength.
Target: T1, Pol3 catalytic subunit of mini-Pol δ-DV (N-terminal truncation of 81 amino acids, D520V) (S. cerevisiae) (UniProt P15436)
T1 sequence: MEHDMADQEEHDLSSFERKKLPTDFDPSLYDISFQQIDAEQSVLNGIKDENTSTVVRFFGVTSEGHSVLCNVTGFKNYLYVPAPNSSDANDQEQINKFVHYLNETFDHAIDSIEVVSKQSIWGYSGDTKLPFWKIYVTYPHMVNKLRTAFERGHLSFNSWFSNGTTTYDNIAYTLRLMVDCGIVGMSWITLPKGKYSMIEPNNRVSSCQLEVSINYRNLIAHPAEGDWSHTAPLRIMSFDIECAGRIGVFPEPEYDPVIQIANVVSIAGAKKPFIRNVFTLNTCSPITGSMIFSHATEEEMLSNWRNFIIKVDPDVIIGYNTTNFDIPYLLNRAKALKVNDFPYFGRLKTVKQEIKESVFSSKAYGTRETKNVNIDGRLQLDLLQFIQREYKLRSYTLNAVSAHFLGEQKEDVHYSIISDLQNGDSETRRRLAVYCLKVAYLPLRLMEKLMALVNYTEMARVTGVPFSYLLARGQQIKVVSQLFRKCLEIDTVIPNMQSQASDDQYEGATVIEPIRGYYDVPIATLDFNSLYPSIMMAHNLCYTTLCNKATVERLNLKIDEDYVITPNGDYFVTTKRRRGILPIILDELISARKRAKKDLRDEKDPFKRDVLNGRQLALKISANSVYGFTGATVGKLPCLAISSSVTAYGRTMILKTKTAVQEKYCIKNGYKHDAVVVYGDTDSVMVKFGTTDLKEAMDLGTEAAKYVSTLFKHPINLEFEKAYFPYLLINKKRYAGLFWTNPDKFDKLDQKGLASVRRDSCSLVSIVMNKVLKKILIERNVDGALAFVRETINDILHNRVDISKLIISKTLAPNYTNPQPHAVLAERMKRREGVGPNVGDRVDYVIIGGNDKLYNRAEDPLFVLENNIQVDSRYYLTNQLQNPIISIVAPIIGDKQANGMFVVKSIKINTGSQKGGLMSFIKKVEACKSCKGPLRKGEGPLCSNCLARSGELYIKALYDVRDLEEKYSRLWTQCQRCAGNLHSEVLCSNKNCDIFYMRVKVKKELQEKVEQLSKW
Test: co-purification; mini-Pol δ-DV overexpressed in yeast and purified as a three-subunit complex; subunits seen in approximately equimolar ratio (Supplementary Figure S1A)

binding: binds
B1: Pol31 subunit of mini-Pol δ-DV (protein, UniProt P46957 1-487)
chain: MDALLTKFNEDRSLQDENLSQPRTRVRIVDDNLYNKSNPFQLCYKKRDYGSQYYHIYQYRLKTFRERVLKECDKRWDAGFTLNGQLVLKKDKVLDIQGNQPCWCVGSIYCEMKYKPNVLDEVINDTYGAPDLTKSYTDKEGGSDEIMLEDESGRVLLVGDFIRSTPFITGVVVGILGMEAEAGTFQVLDICYPTPLPQNPFPAPIATCPTRGKIALVSGLNLNNTSPDRLLRLEILREFLMGRINNKIDDISLIGRLLICGNSVDFDIKSVNKDELMISLTEFSKFLHNILPSISVDIMPGTNDPSDKSLPQQPFHKSLFDKSLESYFNGSNKEILNLVTNPYEFSYNGVDVLAVSGKNINDICKYVIPSNDNGESENKVEEGESNDFKDDIEHRLDLMECTMKWQNIAPTAPDTLWCYPYTDKDPFVLDKWPHVYIVANQPYFGTRVVEIGGKNIKIISVPEFSSTGMIILLDLETLEAETVKIDI

Reference: publication PMC6393303
